We go through 48 compounds from PubChem BioAssay AID1307 (SRMLSC, 2008).

Each structure is given as a SMILES string. Fewer than 10 of roughly 1,200 compounds were called active.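 The calls were made as follows: active = inhibition reaching a set limit at one or more tested concentrations; inactive = inhibition under that limit at every dose.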 The list shows a part of the results. Results with a measured potency or affinity are listed apart.

A short description of the test: yeast RAM network inhibitors, dose response, S. cerevisiae (AID 1307).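 Also: 0% = DMSO vehicle wells and 100% = 10 µM 1-NA-PP1 control; higher inhibition means more yeast growth since RAM block rescues cells from 5-FOA.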 Particulars: S. cerevisiae RAM network URA3 reporter, 5-FOA growth OD615, hits give high values, yeast express analog-sensitive mutant Cbk1 kinase; at 100 µM unless noted.
Turning to `COC(=O)c1cc2c(ccn2-c2ccc(F)cc2)n1Cc1cccc(OC)c1`, the max inhibition was inactive: 6.31% [at 50 µM].

`O=C(CN(Cc1cccs1)C(=O)CSc1nnc(COc2ccccc2)o1)NC1CCCC1`: the max inhibition was inactive: 3.76%.

Take `CCCCN1C(=O)C2(NNc3ccccc3O2)c2ccccc21` (stereo not drawn): the max inhibition was inactive: 4.85%.

As for `COc1cccc(N/C(SCc2ccccc2C)=C(/C#N)C(=O)NCc2cccs2)c1`, the max inhibition is inactive: 3.71% [at 25 µM].

On to `Cc1ccc(-c2noc(CSc3nnc(CCc4ccccc4)n3-c3ccccc3)n2)cc1`, for which the max inhibition is inactive: 3.37% [at 25 µM].

Take `Cc1nc(C)c(NC(=O)N2CCc3ccccc32)cc1NC(=O)N1CCc2ccccc21`: the max inhibition was inactive: 4.06% [at 25 µM].

`CCN(CC)S(=O)(=O)c1cccc(-c2nnc(SCc3nc4ccccc4s3)o2)c1`: the max inhibition is inactive: 2.03% [at 3.125 µM].

With `Cc1ccccc1-c1nnn(CC(=O)Nc2ccc3c(c2)OCCO3)n1`, the max inhibition was inactive: 4.6%.

As for `COC(=O)C/C=C/[C@@H](C)[C@@H](/C=N/OC[C@@H](C)[C@H](OCc1ccccc1)C(C)C)NS(=O)(=O)c1ccc(C)cc1`, the max inhibition is inactive: 5.22% [at 50 µM].

`CSc1nnc2c3ccccc3c3ccccc3c2n1`: the max inhibition was inactive: 2.77%.

With `COc1ccc(C(=O)/C=C/c2ccc(OC)c(COc3ccc(F)cc3)c2)cc1`, the max inhibition was inactive: 5.41%.

As for `Cc1ccc(S(=O)(=O)N2CCC(=O)N(C(COCc3cccc(Cl)c3)Cc3ccccc3)CC2)cc1` (stereo not drawn), the max inhibition is inactive: 5.88% [at 50 µM].

In the case of `Cn1nc(C(F)(F)F)c(/C=N/OC(=O)c2ccccc2Cl)c1SCc1ccc(Cl)cc1`, the max inhibition was inactive: 2.09% [at 25 µM].

For `CCOC(=O)c1cc(C)sc1NC(=O)C(c1ccccc1)c1ccccc1`, the max inhibition is inactive: 4.13% [setting not given].

`C=CCNC(=S)N/N=C/c1ccc(N(CC)Cc2ccccc2)cc1`: the max inhibition was inactive: 3.65%.

Consider `COc1cc2c(cc1NC(=O)C(C)Sc1ccc(C)cc1)oc1ccccc12` (stereo not drawn), for which the max inhibition is inactive: 5.16% [at 50 µM].

For `Cc1ccccc1OCCNC(=O)c1ccccc1Sc1ccccc1C#N`, the max inhibition is inactive: 3.84% [at 0.196 µM].

Turning to `CCCNC(=O)OC[C@H]1O[C@H](CCO/N=C/[C@@H](NS(=O)(=O)c2ccc(C)cc2)[C@H](C)/C=C/CC(=O)OC)C=C[C@@H]1Oc1ccc(OC)cc1`, the max inhibition is inactive: 4.41% [at 25 µM].

As to `CC(C)c1ccc(CNC(=O)CSCC(=O)Nc2ccc3ccccc3c2)cc1`, the max inhibition is inactive: 3.89% [at 50 µM].

Consider `CSc1nc(Cl)c(Cc2ccc(OC(C)C)cc2)c(N2CCOCC2)n1`, for which the max inhibition is inactive: 2.79% [at 0.196 µM].

`Brc1ccc(-c2csc(N3CCc4ccccc4C3)n2)cc1`: the max inhibition was inactive: 3.05% [at 0.782 µM].

For `O=C(CSc1ccc(Cl)cc1)N1CCN(c2c(Cl)cccc2[N+](=O)[O-])CC1`, the max inhibition is inactive: 2.4% [at 50 µM].

Turning to `CC(=O)Nc1ccc(-c2cc(-c3ccc(NC(C)=O)cc3)nc(-c3ccc(NC(C)=O)cc3)n2)cc1`, the max inhibition is inactive: 13.5%.

Regarding `CCOC(=O)C(C)Sc1nc2c(c(-c3cccs3)c1C#N)CCC2` (stereo not drawn), the max inhibition is inactive: 3.89% [at 50 µM].

On to `C=CCn1c(C)cc(C(=O)COC(=O)/C=C/c2cccc(OC)c2)c1C`, for which the max inhibition is inactive: 4.35%.

Turning to `C=CCn1c(-c2cccn(Cc3ccc(Cl)cc3)c2=O)n[nH]c1=S`, the max inhibition is inactive: 12.1%.

As for `CCOc1cc(S(=O)(=O)Nc2ccc(CC)cc2)ccc1Cl`, the max inhibition was inactive: 1.93% [at 0.782 µM].

In the case of `O=C1CCC(/C=C/c2ccccc2)=NN1Cc1ccccc1Cl`, the max inhibition was inactive: 2.92% [at 0.391 µM].

For the compound `CCC(C)COC(=O)C(C#N)c1nc2ccccc2nc1N1CCCCC1` (stereo not drawn), the max inhibition was inactive: 5.11% [at 50 µM].

For the compound `Cc1ccc(OCc2nc(C#N)c(NCc3ccc4c(c3)OCO4)o2)cc1`, the max inhibition was inactive: 1.66% [at 1.563 µM].

With `COc1ccc(-c2c/c(=N\c3nc(-c4ccccc4)c(C)s3)c3ccccc3o2)cc1O`, the max inhibition was inactive: 10.1%.

For the compound `COc1ccc(CNc2oc(-c3cccc4ccccc34)nc2C#N)cc1`, the max inhibition was inactive: 2.85% [at 3.125 µM].

On to `O=C(Nc1ccc(Cl)c(Cl)c1)c1ccc(Cn2cc(Cl)cn2)cc1`, for which the max inhibition was inactive: 1.04% [at 1.563 µM].

As to `CNC(=S)N(CCc1ccc(OC)c(OC)c1)Cc1cc2c(C)cc(C)cc2[nH]c1=O`, the max inhibition is inactive: 3.29% [at 6.25 µM].

As for `CCC1(C)CC(CCNS(=O)(=O)c2ccc(C)cc2)(c2ccc(C)cc2)CCO1` (stereo not drawn), the max inhibition is inactive: 3.04%.

For `O=C(CSc1nc(SCC(=O)NCc2ccccc2)n(-c2ccccc2)n1)NCc1ccccc1`, the max inhibition is inactive: 2.64% [at 0.196 µM].

As for `Cc1ccc(NC(=O)COC(=O)CCC(=O)c2ccc(C(C)(C)C)cc2)c([N+](=O)[O-])c1`, the max inhibition is inactive: 2.67% [at 0.196 µM].

In the case of `COc1ccc(N(C)S(=O)(=O)c2cccc(C(=O)OCC(=O)Nc3sc4c(c3C#N)CCCCC4)c2)cc1`, the max inhibition was inactive: 2.6%.

Consider `CCOC(=O)CSc1nc2ccccc2c(=O)n1CC1CCCC1`, for which the max inhibition was inactive: 2.89% [at 0.782 µM].

For the compound `Cc1ccc(S(=O)(=O)N2CCN(C(=O)C3COc4ccccc4O3)CC2)cc1C` (stereo not drawn), the max inhibition was inactive: 2.29% [at 12.5 µM].

With `CCOP(=O)(OCC)c1nc(-c2cccc3ccccc23)oc1NCc1ccc(OC)cc1`, the max inhibition is inactive: 6.12%.

For `CCOC(=O)c1c(C)[nH]c(C)c1C(=O)COC(=O)/C=C/c1ccc(Cl)cc1`, the max inhibition is inactive: 2.07% [at 0.391 µM].

Regarding `Cc1ccc(C(=O)c2c(NC(=O)c3ccccc3)sc(C)c2C)cc1`, the max inhibition is inactive: 4.08% [at 3.125 µM].

In the case of `CCCCOn1c(C)c(C(=O)OCC)c2c3no[n+]([O-])c3ccc21`, the max inhibition was inactive: 2.31%.

Take `COc1cccc(NC(=S)N(Cc2ccc(Cl)cc2)Cc2ccc(C(=O)O)cc2)c1`: the max inhibition was inactive: 3.88%.

Turning to `CCOC(=O)c1cccc(NC(=O)CSc2nnc(COc3ccccc3)n2CC)c1`, the max inhibition is inactive: 0.96% [at 0.782 µM].

With `CCc1ccc(C(=O)COC(=O)C(Cc2ccccc2)NC(=O)c2ccc(Cl)cc2)cc1` (stereo not drawn), the max inhibition is inactive: 1.81% [at 50 µM].

Consider `CCC(C)[C@@H](CN(N=O)[C@@H](Cc1ccccc1)CN(C)N=O)N(CCc1ccccc1)N=O` (stereo partly drawn), for which the max inhibition is inactive: 6.08% [at 0.196 µM].
